Results from article PMC5082905, “Identification of Residues in the Lipopolysaccharide ABC Transporter That Coordinate ATPase Activity with Extractor Function” (mBio, 2016).
Where a chain is given by its changes, count along the chain named. Names and notes keep the numbering of the source. No constants are given. Whether binding was seen depends on the method and setting. Binding seen in cells or lysates may run through a third protein. A result given as binding can be weak or reduced; the word gives no strength. Each block holds one binder with its values, some of them ahead of it.

The chains behind the UniProt entries cited, without tags or fusion partners. Where a name states a change or a piece, a line headed by the entry shows the natural chain unless it says otherwise.
UniProt P0ADV9: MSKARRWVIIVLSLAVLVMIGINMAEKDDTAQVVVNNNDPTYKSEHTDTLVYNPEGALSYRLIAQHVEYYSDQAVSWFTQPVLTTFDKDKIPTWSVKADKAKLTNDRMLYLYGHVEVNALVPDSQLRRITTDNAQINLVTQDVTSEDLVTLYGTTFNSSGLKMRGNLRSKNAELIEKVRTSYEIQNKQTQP

Target: LptC-His7 (E. coli) (UniProt P0ADV9)
Assay: affinity co-purification; LptB2FG-LptC-His7 complex variants purified from E. coli through LptC-His7; Coomassie blue-stained denaturing gel

B1: LptB^WT (enzyme, E. coli, UniProt P0A9V1 1-241, looked up)
chain: MATLTAKNLAKAYKGRRVVEDVSLTVNSGEIVGLLGPNGAGKTTTFYMVVGIVPRDAGNIIIDDDDISLLPLHARARRGIGYLPQEASIFRRLSVYDNLMAVLQIRDDLSAEQREDRANELMEEFHIEHLRDSMGQSLSGGERRRVEIARALAANPKFILLDEPFAGVDPISVIDIKRIIEHLRDSGLGVLITDHNVRETLAVCERAYIVSQGHLIAHGTPTEILQDEHVKRVYLGEDFRL
binding: binds

binding: binds
B2: LptB^R91S (enzyme, UniProt P0A9V1 1-241)
chain: B1 chain with R91S
